Laboratory results from US10323007B1, “N2N N4-disubstituted quinazoline-2,4-diamines and uses thereof” (University of South Florida, priority 2016, dated 2019).

System: human HepG2 cells
Format: cell-based
Details: for Al: Table 6, LD50(HepG2) relative to MIC (isolate 1646)
Protocol: Cytotoxicity assays were performed using human HepG2 cells (human liver epithelial with hepatocellular carcinoma), as described by us previously.^17,24 Cells were cultured in Dulbecco's modified eagle medium (DMEM), supplemented with 10% fetal bovine serum and 1% penicillin-streptomycin for 3 days at 37° C. and 5% CO2. Cells were then diluted to 1×10^5 ml^−1 using fresh DMEM and added to 96 well tissue culture plates at a volume of 100 μL. Plates were incubated for 24 hours at 37° C. and 5% CO2, allowing the cells to adhere to the plastic. […] Plates were then incubated for 48 hours at 37° C. and 5% CO2. After 48 hours the DMEM was removed and 100 μL of new media was added containing MTT (3-(4, 5-dimethylthiazol-2-yl)-2, 5-diphenyltetrazolium bromide), followed by incubation for four hours at 37° C. and 5% CO2. […] Lead compounds were solvated in 100% DMSO for these studies, which served as the negative control. LD50 values were determined for each compound by comparison to vehicle only controls.

SMILES	difference in specificity towards bacteria (LD50 human liver cells vs MIC)	Al
CNc1nc(NCc2ccccc2)nc2ccc(Br)cc12 [Compound 4, N^2-Benzyl-6-bromo-N^4-methylquinazoline-2,4-diamine]	46 fold	46
CNc1nc(NCc2ccccc2)nc2ccc(C)cc12 [Compound 5, N^2-Benzyl-N^4,6-dimethylquinazoline-2,4-diamine]	22 fold	22
CCC/C=C/c1ccc2nc(NCc3ccccc3)nc(NC)c2c1 [Compound 26, (E)-N^2-Benzyl-N^4-methyl-6-(pent-1-en-1-yl)quinazoline-2,4-diamine]	–	22
CCCCCc1ccc2nc(NCc3ccccc3)nc(NC)c2c1 [Compound 27, N^2-Benzyl-N^4-methyl-6-pentylquinazoline-2,4-diamine]	–	12
CNc1nc(NCc2ccccc2)nc2ccc(C3=CCCCC3)cc12 [Compound 29, N^2-Benzyl-6-(cyclohex-1-en-1-yl)-N^4-methylquinazoline-2,4-diamine]	–	12
CNc1nc(NCc2ccccc2)nc2ccc(C3CCCCC3)cc12 [Compound 30, N^2-Benzyl-6-cyclohexyl-N^4-methylquinazoline-2,4-diamine]	–	6
